# In US20260124184A1, “ONCE DAILY ALDOSTERONE SYNTHASE INHIBITOR (R)-(+)-5-(P-CYANOPHENYL)-5,6,7,8-TETRAHYDROIMIDAZO[L,5-A]PYRIDINE” (priority 2022, published 2026):
# Where “and” joins values, the source holds several entries; their conditions need not be identical. Equal entries are not always repeated. Where two headings read alike, the source gives them in different places. Further values from the same series stand in other lists.
# Tested on: patients with primary aldosteronism
# Settings: 4 mg, patients 1,5,8,14,18,21,22,25,28,30 in row order
# Method: A double-blind, randomized, Phase 2 trial was conducted between November 2019 and June 2022 at 11 centres in Italy, Switzerland and the Netherlands (NCT04007406). […] Patients requiring fixed-dose antihypertensive therapy continued treatment throughout the study; steroid therapies, β-adrenergic and renin-angiotensin-aldosterone system blockers were not permitted. At 14-day intervals, office blood pressures were recorded and blood samples were taken for measurement of steroid and peptide hormones and electrolytes at a central laboratory.
# Plasma aldosterone and plasma renin concentration were measured centrally under GCP regulations using the Liaison® chemiluminescent immunoassay kit supplied by DiaSorin S.p.A. Italy. The system used specific monoclonal antibodies to prevent cross reactions with other major potential reactants in the serum samples. The monoclonal antibodies directed against specific epitopes of the renin molecule allowed accurate and sensitive quantification. The assays were performed according to the instructions provided by the manufacturer. […] The analytical sensitivity was <0.97 ng/ml. […] The analytical sensitivity was <0.53 IU/mL.
# For all efficacy endpoints, changes from baseline were calculated from linear models and accompanied by 95% confidence intervals and p values. Log-transformed values were used for changes in ARR. The full analysis set (FAS) and safety set were defined as all randomized patients who received at least one dose of study drug.
substance,measurement,setting,value
"(R)-(+)-5-(p-cyanophenyl)-5,6,7,8-tetrahydroimidazolium[1,5-a]pyridine dihydrogen phosphate [dexfadrostat phosphate]","ARR, individual patient values",Day 1 (baseline),18.0 (ng/dL)/(mU/L) and 24.8 (ng/dL)/(mU/L)
same,"ARR, individual patient values",Day 14,0.7 (ng/dL)/(mU/L)
same,"ARR, individual patient values",Day 28,3.1 (ng/dL)/(mU/L) and 1.1 (ng/dL)/(mU/L)
same,"ARR, individual patient values",Day 42,3.8 (ng/dL)/(mU/L) and 1.7 (ng/dL)/(mU/L)
